These are yes or no findings as the source states them, for the method shown. In cells and extracts the contact can be indirect. Some results given as binding are weak or reduced against the parent protein; the word gives no strength.

By UniProt entry, the sequences of proteins in these tests, tags left out. Where a name states a change or a piece, a line headed by the entry shows the natural chain unless it says otherwise.
UniProt Q93050, whole entry: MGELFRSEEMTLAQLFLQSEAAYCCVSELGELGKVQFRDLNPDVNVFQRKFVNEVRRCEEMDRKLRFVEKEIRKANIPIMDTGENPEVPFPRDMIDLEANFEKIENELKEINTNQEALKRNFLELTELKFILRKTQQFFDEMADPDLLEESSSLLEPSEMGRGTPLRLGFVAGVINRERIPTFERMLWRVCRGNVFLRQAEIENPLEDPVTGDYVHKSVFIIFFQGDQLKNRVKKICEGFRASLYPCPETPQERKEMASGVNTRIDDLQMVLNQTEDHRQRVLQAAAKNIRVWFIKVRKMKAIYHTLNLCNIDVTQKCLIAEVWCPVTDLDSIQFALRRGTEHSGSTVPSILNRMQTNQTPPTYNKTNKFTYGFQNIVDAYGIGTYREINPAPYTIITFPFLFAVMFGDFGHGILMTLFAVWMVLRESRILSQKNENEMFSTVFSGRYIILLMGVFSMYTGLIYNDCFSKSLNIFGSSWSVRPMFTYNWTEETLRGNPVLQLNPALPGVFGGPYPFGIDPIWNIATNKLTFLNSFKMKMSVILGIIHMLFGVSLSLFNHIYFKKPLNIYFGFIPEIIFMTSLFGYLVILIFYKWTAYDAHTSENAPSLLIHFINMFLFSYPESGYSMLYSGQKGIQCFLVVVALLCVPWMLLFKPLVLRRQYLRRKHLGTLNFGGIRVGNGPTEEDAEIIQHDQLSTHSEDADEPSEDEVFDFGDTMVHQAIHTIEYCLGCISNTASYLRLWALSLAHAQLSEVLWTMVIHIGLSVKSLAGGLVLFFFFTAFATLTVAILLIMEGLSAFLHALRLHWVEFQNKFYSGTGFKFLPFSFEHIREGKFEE
UniProt Q9Z1G4, whole entry: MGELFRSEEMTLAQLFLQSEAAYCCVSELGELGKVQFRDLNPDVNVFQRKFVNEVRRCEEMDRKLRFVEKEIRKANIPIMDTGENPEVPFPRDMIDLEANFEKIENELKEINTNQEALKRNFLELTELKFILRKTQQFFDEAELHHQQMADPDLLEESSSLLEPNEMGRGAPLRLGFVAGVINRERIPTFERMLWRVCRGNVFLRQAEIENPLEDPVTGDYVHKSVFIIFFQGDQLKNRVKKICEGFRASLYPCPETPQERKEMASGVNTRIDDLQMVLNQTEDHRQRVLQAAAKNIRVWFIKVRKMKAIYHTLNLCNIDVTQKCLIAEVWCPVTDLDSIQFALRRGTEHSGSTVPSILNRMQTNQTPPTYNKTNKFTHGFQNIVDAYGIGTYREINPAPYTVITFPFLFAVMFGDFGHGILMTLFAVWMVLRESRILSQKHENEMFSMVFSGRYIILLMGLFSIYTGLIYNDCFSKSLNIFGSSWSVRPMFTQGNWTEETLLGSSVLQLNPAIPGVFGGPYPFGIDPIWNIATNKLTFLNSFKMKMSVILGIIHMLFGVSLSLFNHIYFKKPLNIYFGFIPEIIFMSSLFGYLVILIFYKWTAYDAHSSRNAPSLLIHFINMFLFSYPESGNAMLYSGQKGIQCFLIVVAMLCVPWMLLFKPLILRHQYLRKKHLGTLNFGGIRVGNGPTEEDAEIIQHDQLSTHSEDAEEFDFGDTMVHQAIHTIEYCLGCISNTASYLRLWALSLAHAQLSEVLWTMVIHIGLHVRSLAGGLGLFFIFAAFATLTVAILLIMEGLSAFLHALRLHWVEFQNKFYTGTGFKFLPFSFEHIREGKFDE
UniProt Q9Y519, whole entry: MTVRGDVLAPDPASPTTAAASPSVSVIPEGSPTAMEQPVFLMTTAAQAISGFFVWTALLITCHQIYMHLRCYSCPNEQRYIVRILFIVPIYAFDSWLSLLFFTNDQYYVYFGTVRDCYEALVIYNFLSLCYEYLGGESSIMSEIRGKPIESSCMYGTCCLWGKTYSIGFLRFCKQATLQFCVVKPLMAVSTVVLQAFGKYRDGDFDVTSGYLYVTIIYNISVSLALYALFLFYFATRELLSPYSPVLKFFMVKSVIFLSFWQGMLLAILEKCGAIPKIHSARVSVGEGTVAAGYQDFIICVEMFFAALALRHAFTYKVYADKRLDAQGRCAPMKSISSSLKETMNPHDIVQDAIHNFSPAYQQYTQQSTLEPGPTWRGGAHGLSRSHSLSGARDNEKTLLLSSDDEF
UniProt P50516, whole entry: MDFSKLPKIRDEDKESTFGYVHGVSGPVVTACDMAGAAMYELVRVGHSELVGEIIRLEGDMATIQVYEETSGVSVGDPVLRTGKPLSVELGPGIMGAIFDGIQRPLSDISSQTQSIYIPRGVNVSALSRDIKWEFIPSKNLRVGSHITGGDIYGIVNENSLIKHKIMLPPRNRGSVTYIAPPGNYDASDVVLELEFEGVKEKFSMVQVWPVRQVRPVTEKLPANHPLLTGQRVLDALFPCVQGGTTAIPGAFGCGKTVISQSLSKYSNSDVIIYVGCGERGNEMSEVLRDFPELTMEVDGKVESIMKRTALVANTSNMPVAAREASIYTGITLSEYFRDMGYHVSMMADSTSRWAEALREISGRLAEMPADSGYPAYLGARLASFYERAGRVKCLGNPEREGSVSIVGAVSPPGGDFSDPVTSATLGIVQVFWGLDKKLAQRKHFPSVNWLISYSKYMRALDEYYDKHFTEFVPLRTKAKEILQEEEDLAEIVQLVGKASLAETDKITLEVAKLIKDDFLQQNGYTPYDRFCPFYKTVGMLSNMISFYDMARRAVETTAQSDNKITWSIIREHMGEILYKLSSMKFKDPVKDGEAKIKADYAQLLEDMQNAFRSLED
UniProt Q8BVE3, whole entry: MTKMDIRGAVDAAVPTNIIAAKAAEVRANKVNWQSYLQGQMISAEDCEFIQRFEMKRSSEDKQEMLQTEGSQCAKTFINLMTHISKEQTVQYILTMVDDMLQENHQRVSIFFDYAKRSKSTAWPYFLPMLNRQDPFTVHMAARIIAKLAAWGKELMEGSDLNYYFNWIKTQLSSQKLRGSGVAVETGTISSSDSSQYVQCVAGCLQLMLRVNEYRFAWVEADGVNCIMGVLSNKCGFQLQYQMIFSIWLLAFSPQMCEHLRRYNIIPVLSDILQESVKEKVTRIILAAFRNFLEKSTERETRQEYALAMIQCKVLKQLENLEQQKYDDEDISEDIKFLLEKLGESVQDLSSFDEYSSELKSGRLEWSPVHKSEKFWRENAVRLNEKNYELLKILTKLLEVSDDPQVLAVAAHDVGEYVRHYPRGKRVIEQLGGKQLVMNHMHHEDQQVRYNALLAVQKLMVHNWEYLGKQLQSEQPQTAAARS

Common to all, as to assay: co-IP
The target of experiment [1] is ATP6V0A1 (V-ATPase subunit V0a1), human (human (endogenous in HEK293T)) (UniProt Q93050).
Experiment [2] concerns the target V-ATPase subunit V0a1 (ATP6V0A1), mouse (mouse (endogenous in hippocampus)) (UniProt Q9Z1G4).
The target in experiment [3] is FLAG-hTMEM184B-GFP (human) (UniProt Q9Y519).

“FLAG-hTMEM184B-GFP (from UniProt Q9Y519 1-407)”: in experiment [1], the binding entry was “binds”.

As for “V-ATPase subunit V1A (ATP6V1A), mouse (from UniProt P50516 1-617)”, in experiment [2], the binding result is “binds”. Consider “ATP6V0A1 (V-ATPase subunit V0a1), human (from UniProt Q93050 1-837)”, for which the binding entry in experiment [3] was “binds”. Take “V-ATPase subunit V1H (ATP6V1H), mouse (from UniProt Q8BVE3 1-483)”: in experiment [2], the binding result is on record as “binds”.

(Values after publication doi:10.1101/2025.02.01.635992.)
